Measurements reported in patent US9173938B2, “Combination of a purine-based CDK inhibitor with a tyrosine kinase inhibitor and use thereof in the treatment of proliferative disorders” (Cyclacel Limited, priority 2007, dated 2015).

Test system: H358 cells
Assay: Cell growth / drug combination analysis (alamar blue, Calcusyn)
Assay type: cell-based
Details: Homo sapiens, NCI-H358

For `CC[C@H](CO)Nc1nc(NCc2ccccc2)c2ncn(C(C)C)c2n1` [seliciclib, 2-(1-R-hydroxymethylpropylamino)-6-benzylamino-9-isopropylpurine], the IC50 was 8.5 µM.
